Experimental data published in publication PMC8062585.

Sequences of proteins named here, by UniProt entry; tags and fusion partners are left off. Residues count along the entry.
UniProt P80188, 21-198: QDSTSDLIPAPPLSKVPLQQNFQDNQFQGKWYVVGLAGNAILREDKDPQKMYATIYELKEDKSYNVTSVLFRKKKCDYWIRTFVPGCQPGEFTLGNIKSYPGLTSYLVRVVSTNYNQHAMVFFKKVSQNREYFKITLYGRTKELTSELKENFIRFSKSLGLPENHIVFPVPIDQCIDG

Molecular target: NGAL (UniProt P80188)
Assay: bead-based fluorescence, 4-concentration estimate
Details: 5' biotin; PBSMCT: DPBS with 2.5 mM MgCl2, 0.9 mM CaCl2, 0.01% Tween 20; room temperature, 1 h; bound NGAL detected with iFluor 647 anti-His antibody (6 nM); commercial protein; protein details: C-terminal His-tag; single-stranded DNA

Row | Sequence | Kd [nM]
1 | GTTTTTGGTGGATAG [G12.7] | > 512
2 | GTGGATAGTAAATCTTTGCCTATCCAG [G13.6] | > 1020
3 | TTTGGTGGATAGTAAATCTTTGC [G13.10] | > 512
4 | GATAGTAAATCTTTGCCTATCCA [G13.9] | > 1020
